Reference: patent publication US20250270315A1
Changes are numbered by the printed parent chain. No constants are given. Whether binding was seen depends on the method and setting. Some results given as binding are weak or reduced against the parent protein; the word gives no strength. Values belong to the binder of their own block, whether it stands above or below them.

Amino acid sequences for entries named in this document (tags omitted). A change or cut given only in a name is not applied to a line headed by its entry. Chains listed by the source or under a name are the forms on record and can include a tag or linker. Residues count along the entry.
UniProt Q9P1W8, residues 29-387: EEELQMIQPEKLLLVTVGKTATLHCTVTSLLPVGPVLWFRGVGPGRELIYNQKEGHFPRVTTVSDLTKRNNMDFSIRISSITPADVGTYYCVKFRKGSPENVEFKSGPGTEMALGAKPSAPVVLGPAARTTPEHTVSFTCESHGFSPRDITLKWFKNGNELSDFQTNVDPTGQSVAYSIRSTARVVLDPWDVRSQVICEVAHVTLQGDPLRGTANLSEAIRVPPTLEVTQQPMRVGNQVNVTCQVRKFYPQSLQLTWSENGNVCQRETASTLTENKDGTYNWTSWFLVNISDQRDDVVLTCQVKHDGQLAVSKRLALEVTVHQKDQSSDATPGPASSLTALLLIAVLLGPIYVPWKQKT
UniProt O00241: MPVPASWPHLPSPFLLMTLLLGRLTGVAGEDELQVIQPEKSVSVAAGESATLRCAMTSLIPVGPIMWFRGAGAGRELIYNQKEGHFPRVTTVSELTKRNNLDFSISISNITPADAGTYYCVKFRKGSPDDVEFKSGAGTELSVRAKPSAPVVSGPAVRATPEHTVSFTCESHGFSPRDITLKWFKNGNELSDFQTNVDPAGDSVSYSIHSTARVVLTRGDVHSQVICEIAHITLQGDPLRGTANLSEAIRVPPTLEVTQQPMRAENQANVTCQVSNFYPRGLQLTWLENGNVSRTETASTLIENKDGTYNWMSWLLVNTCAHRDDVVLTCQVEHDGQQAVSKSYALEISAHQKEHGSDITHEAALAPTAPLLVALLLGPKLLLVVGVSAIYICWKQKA
human SIRPβ stably expressed on CHOK1 cells: residues 30-398 of O00241
human SIRPβ ECD recombinant protein (6×His tagged): residues 30-371 of O00241
UniProt P78324: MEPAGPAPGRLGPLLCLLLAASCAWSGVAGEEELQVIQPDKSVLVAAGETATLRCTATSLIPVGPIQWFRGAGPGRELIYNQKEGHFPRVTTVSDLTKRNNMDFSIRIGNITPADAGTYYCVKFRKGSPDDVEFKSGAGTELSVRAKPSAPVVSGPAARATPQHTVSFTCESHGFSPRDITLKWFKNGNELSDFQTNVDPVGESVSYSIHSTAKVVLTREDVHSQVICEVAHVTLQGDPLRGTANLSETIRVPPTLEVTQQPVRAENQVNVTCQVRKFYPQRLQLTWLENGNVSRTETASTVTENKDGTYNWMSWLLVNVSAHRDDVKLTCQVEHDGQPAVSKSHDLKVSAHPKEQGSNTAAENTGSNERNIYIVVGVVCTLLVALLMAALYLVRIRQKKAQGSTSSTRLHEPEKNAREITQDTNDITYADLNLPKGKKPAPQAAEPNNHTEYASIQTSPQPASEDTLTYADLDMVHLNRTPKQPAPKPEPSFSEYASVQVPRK
full length human SIRPα v1 stably expressed on CHOK1 or 293F cells: residues 31-504 of P78324
UniProt Q5TFQ8: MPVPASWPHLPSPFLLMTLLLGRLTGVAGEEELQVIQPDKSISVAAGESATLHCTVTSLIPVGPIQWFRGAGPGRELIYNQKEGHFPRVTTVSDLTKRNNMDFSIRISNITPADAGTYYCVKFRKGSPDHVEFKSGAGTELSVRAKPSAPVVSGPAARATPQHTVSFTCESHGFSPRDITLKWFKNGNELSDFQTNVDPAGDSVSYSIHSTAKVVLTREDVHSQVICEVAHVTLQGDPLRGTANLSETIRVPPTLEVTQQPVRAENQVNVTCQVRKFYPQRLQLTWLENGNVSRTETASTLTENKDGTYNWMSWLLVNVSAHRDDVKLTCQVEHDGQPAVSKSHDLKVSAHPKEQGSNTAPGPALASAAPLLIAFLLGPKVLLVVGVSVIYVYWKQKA

What was measured:
[1] = biological target: human SIRPγ stably expressed on 293F cells (human) (UniProt Q9P1W8); experiment: FACS, 293F-human SIRPγ cells
[2] = biological target: human SIRPβ stably expressed on CHOK1 cells (human) (UniProt O00241); experiment: FACS, CHOK1 cells stably expressing human SIRPβ
[3] = biological target: human SIRPγ stably expressed on 293F cells (human) (UniProt Q9P1W8); experiment: FACS, 293F cells stably expressing human SIRPγ
[4] = biological target: human SIRPβ stably expressed on CHOK1 cells (human) (UniProt O00241); experiment: FACS, CHOK1-human SIRPβ cells
[5] = biological target: full length human SIRPα v1 stably expressed on CHOK1 or 293F cells (human) (UniProt P78324); experiment: competitive FACS, CHOK1 cells expressing human SIRPα v1, blocked ligand mFc tagged human CD47 ECD
[6] = biological target: human SIRPβL ECD recombinant protein (6×His tagged) (human) (UniProt Q5TFQ8); experiment: ELISA, recombinant human SIRPβL (SIRPβI) ECD
[7] = biological target: full length human SIRPα v1 stably expressed on CHOK1 or 293F cells (human) (UniProt P78324); experiment: FACS, CHOK1-human SIRPα v1 cells
[8] = biological target: human SIRPβ ECD recombinant protein (6×His tagged) (human) (UniProt O00241); experiment: ELISA, recombinant human SIRPβ ECD
[9] = biological target: human SIRPα v1 ECD recombinant protein (tag not given) (human) (UniProt P78324); experiment: competitive ELISA, coated human SIRPα v1 ECD, blocked ligand mFc tagged human CD47 ECD
[10] = biological target: human SIRPβL ECD recombinant protein (6×His tagged) (human) (UniProt Q5TFQ8); experiment: ELISA, human SIRPβI ECD
[11] = biological target: full length human SIRPα v1 stably expressed on CHOK1 or 293F cells (human) (UniProt P78324); experiment: FACS, CHOK1 cells stably expressing human SIRPα v1
[12] = biological target: human SIRPβ ECD recombinant protein (6×His tagged) (human) (UniProt O00241); experiment: ELISA, human SIRPβ ECD

- binding [1]: binds
- binding [2]: binds
- binding [3]: binds
- binding [4]: binds
- binding [5]: binds
- binding [6]: binds
- binding [7]: binds
- binding [8]: binds
- binding [9]: binds
- binding [10]: binds
- binding [11]: binds
- binding [12]: binds
B1: hu1H9G4 (antibody, V domains shown)
VH: QVQLVQSGAEVKKPGASVKVSCKASGYTFTSYWITWVKQAPGQGLEWIGDIYPGSGSTNHIEKFKSKATLTVDTSISTAYMELSRLRSDDTAVYYCATGYGSSYGYFDYWGQGTLVTVSS
VL: DIQMTQSPSSLSASVGDRVTITCRASENIYSYLAWYQQKPGKAPKLLIYTAKTLAEGVPSRFSGSGSGTDFTLTISSLQPEDFATYYCQHQYGPPFTFGQGTKLELK

- binding [6]: binds
- binding [10]: binds
B3: 071c (antibody, V domains shown)
VH: QIQLVQSGPELKKPGETVKISCKASGYTFTTYGMSWVKQAPGKGLKWMVWINTYSGVPTYADDFQGRFAFSLETSASTSYLQINNLRNEDTATYFCARDPHYYGTSPAWFAYWGQGTLVTVSA
VL: DIVMTQSQKFMSTTIGDRVIITCKASQIVGIAVAWYQQKPGQSPKLLIYSASNRFTGVPDRFTGSGSGTDFTLTISNMQSEDLADYFCQQYSTYPFTFGSGTKLEIK

- binding [6]: binds
- binding [10]: binds
B4: 073c (antibody, V domains shown)
VH: B3 VH with Q65K, R87K, T105S, A111V
VL: B3 VL with I20S, K24E, F55Y, D85N, T93A, I106V

More lines, now with the values behind:

B2: 042c (antibody, V domains shown)
VH: QIQLVQSGPELKKPGETVKISCRASGYTFTTYGMSWVKQAPGKGLRWMGWINTYSGVSTCADDFKGRFAFSLETSATTAYLQIHNLTNEDTATYFCARDPHSYGNSPAWFPYWGQGTLVTVSA
VL: B3 VL with G16R, I20S, I28N, A32S, P40S, F55Y, T93S, F96L, E105A
- binding [6]: binds
- binding [10]: binds

B5: 059c (antibody, V domains shown)
VH: QVQLQQSGPELVKPGASVKMSCKASGYTFSEYVLSWVKQRTGQGLEWIGEIYPGTITTYYNEKFKGKATLTADKSSNTAYIQLTSLTSEDSAVYFCGRFYDYDGGWFAYWGQGTLLTVSA
VL: ENVLTQSPEKMAVSLGQKVTMTCSASSSVSSSDLHWYQQKSGASPKPLIHGTSNLASGVPARFSGSGSGTSYSLTISSVEAEDAATYYCQQWSGYPWTFGGGTNLEIK
- binding [6]: binds
- binding [10]: binds

B6: 025c (antibody, V domains shown)
VH: EVQLQQSGAELVKPGASVKLSCTASGFNIKDYYMHWVKQRTEQGLEWIGRIDPEDGETKYAPKFQGKATITADTSSNTAYLQLSSLTSEDTAVYYCDRGLAYWGQGTLVTVSA
VL: QIVLTQSPAIMSASPGEKVTLTCSASSSVSSSYLYWYQQKPGSSPKLWIYSTSNLASGVPARFSGSGSGTSYSLTISSMEAEDAASYFCHQWSSYPYTFGGGTKLEIK
- binding [6]: binds
- binding [10]: binds

B7: 015c (antibody, V domains shown)
VH: EVQLQQSGVEVVQPGASVKLSCTASGFNIEAYYMHWVKQRTEQGLEWIGRIDPEDGESKYAPKFQGKATMTADTSSSTAYLQLSSLTSDDTAVYYCVRGSYEYWGQGTTLTVSS
VL: B6 VL with A61P, E80Q, H90Y
- binding [6]: binds
- binding [10]: binds
